Binding data for three molecules are collected here from paper PMC8039722.

Chains of the proteins cited; added tags and fusions are not shown. Lines headed by an entry give the natural chain unless they say otherwise; changes in a name come on top. Residues count along the entry.
UniProt Q63472: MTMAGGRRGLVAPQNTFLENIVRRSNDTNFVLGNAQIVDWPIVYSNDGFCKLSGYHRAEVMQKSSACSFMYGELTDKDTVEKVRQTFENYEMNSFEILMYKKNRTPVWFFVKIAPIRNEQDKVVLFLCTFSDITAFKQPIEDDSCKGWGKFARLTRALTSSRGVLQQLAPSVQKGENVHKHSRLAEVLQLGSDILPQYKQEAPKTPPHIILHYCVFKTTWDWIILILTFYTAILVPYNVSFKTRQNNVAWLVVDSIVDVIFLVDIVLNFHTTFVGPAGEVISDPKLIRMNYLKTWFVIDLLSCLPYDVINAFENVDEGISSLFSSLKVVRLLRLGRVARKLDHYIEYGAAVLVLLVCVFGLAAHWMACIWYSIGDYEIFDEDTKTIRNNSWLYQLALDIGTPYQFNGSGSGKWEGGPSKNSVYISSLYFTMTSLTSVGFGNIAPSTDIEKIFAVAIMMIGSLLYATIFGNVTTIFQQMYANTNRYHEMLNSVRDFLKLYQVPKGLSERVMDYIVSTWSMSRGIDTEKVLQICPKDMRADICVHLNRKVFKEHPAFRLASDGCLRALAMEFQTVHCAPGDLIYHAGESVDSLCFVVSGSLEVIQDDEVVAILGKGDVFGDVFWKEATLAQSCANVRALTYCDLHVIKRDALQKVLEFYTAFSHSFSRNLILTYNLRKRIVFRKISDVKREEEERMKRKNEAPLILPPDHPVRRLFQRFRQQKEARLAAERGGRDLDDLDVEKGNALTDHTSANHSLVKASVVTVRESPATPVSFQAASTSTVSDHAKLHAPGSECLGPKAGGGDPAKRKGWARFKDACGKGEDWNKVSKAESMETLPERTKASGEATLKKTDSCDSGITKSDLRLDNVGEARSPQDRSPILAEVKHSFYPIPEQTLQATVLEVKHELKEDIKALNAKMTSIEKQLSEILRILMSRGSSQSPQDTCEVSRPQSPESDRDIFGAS
cytoplasmic C-terminal region (amino acids 493-962) of rat Eag1, two-hybrid bait: residues 493-962 of Q63472

No constants are given. Whether binding was seen depends on the method and setting. For part of these data: In cells and extracts the contact can be indirect. Some results given as binding are weak or reduced against the parent protein; the word gives no strength. For part of these data: Tags and fused reporters may be left off the sequences shown.

In assay [1] the target is T1, GST fusion protein encoding the C-terminal region (amino acids 355-481) of the MKRN1 long isoform (rat).
T1 sequence: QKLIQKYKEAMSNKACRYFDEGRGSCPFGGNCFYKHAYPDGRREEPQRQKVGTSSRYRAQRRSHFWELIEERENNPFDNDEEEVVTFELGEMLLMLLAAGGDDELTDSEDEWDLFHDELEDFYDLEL
Kind of assay: pull-down; GST fusion protein on glutathione-agarose beads (4-8 μg) incubated overnight at 4 °C with rat brain lysates (crude membrane fractions); immunoblot with anti-Eag1; only the target purified. A general note: In western blotting, separated proteins are transferred to a membrane and probed.

Assay [2] concerns the target cytoplasmic C-terminal region (amino acids 493-962) of rat Eag1, two-hybrid bait (rat) (UniProt Q63472). Put plainly: two-hybrid; yeast two-hybrid screening of a rat brain cDNA library with the cytoplasmic C-terminal region (amino acids 493-962) of rat Eag1 as the bait.

Turning to “endogenous Eag1 (from UniProt Q63472 1-962)”, the binding entry in assay [1] is “binds”.

B1: rat MKRN1 two-hybrid clone (amino acids 142-481 of the long isoform) (domain or fragment, UniProt A0A0G2QC40 142-481)
chain: AEMNPGEAESRNPNFPTVGAGSEDWVNAIEFVPGQPYCGRTAPSCTEVPLQGSVTKEESEKEPTTVETEKQLCPYAAVGECRYGENCVYLHGDSCDMCGLQVLHPMDAAQRSQHIKSCIEAHEKDMELSFAVQRSKDMVCGICMEVVYEKANPSERRFGILSNCNHTYCLKCIRKWRSAKQFESKIIKSCPECRITSNFVIPSEYWVEEKEEKQKLIQKYKEAMSNKACRYFDEGRGSCPFGGNCFYKHAYPDGRREEPQRQKVGTSSRYRAQRRSHFWELIEERENNPFDNDEEEVVTFELGEMLLMLLAAGGDDELTDSEDEWDLFHDELEDFYDLEL
For B1, the binding entry in assay [2] is given as “binds”.

B2: rat MKRN1 two-hybrid clone (amino acids 355-481 of the long isoform) (domain or fragment, UniProt A0A0G2QC40 355-481)
chain: T1 sequence
With B2, in assay [2], the binding entry is recorded as “binds”.
